The series is described as follows: Aqueous solubility of compound at 1 mg. Particulars: buffer.

SMILES strings stand for the structures. In brackets after ≈: the same amount, converted by molar mass.

The term solubility denotes the dissolved amount per volume that the medium holds. The low end stands for a poorly soluble substance, the high end for a readily soluble substance. As for `C=CC(=O)N1CCC(Cn2cc(-c3ccc4c(c3)OCO4)c3c(N)ncnc32)CC1`, the solubility turned out to be 100 µg/mL (≈ 247 µM).

The record behind these values is ChEMBL document CHEMBL4715815, “Design, synthesis and biological evaluation of 7H-pyrrolo[2,3-d]pyrimidin-4-amine derivatives as selective Btk inhibitors with improved pharmacokinetic properties for the treatment of rheumatoid arthritis” (Eur J Med Chem, 2018).
